Measured values taken from PubChem BioAssay AID194 (DTP/NCI, 2004).
The list shows only some results of the screen, not a fair sample: it is rich in T/C values a quarter to a half above the control, in often repeated tests (any T/C) and in doses without a T/C. Other doses and runs of a compound stand elsewhere. T/C: endpoint of the treated group in % of that of the vehicle group. Some entries give survivors of the animals treated and no T/C: the source files T/C as zero there, which appears to mark a toxic dose or a test without result, not a measured value. Some doses without a T/C left all or most animals alive at the check, yet need not have been tolerated: the source hardly ever lists a survival T/C far under the control, and the zero likely stands for such cases as well. Survivors were counted at the toxicity check, usually on the fifth day, unless a day is given; later deaths do not show. Schedules are NCI's codes, taken here to give the interval after Q, in days (D) or hours (H), and the number of doses after X. For survival time, this PubChem deposit counts one and a half times the control or more as active, and values a quarter to a half above the control carry no call in these data; other NCI protocols may use other cut-offs. Some T/C values carry the count of animals alive at the toxicity check (mostly the fifth day); without a count, all were alive then. Some doses were run more than once; the results are listed from low to high.

Test system: BDF1 mice, B16 melanoma s.c., survival/tumor T/C
Assay: NCI In Vivo Anticancer Drug Screen. Data for tumor model B16 Melanoma (subcutaneous) in B6D2F1 (BDF1) mice
Settings: T/C endpoint: median survival time, higher T/C = longer survival
Protocol: The antitumor activity of compounds was measured in mice bearing transplantable tumors. Survival or tumor size were measured and the results are expressed as the measurement made in the treated group (T) divided by the measurement made in the vehicle treated control group (C). The tumor model used in this assay is B16 Melanoma (subcutaneous) in B6D2F1 (BDF1) mice

[1] = dose: 32.0 mg/kg/injection, schedule: Q01DX009 (ip), vehicle: Klucel (hydroxypropylcellulose) (HPC)
[2] = dose: 5.0 mg/kg/injection, schedule: Q01DX009 (ip), vehicle: saline with Tween-80
[3] = dose: 40.0 mg/kg/injection, schedule: Q01DX009 (ip), vehicle: saline

`O=C(O)CCCc1ccc(N(CCCl)CCCl)cc1` was tested, and the survivor count (dose: 16.0 mg/kg/injection, schedule: Q01DX009 (ip), vehicle: Klucel (hydroxypropylcellulose) (HPC)) was 7 of 10, the survivor count (dose: 24.0 mg/kg/injection, schedule: Q01DX009 (ip), vehicle: Klucel (hydroxypropylcellulose) (HPC)) was 6 of 10 and the survivor count [1] was 0 of 10. The survivor count (dose: 48.0 mg/kg/injection, schedule: Q01DX009 (ip), vehicle: Klucel (hydroxypropylcellulose) (HPC)) was 0 of 10.
With `C[C@H](CN1CC(=O)NC(=O)C1)N1CC(=O)NC(=O)C1` the T/C (dose: 8.0 mg/kg/injection, schedule: Q01DX009 (ip), vehicle: water) was 131 % of control, the T/C (dose: 64.0 mg/kg/injection, schedule: Q01DX009 (ip), vehicle: saline) was 136 % of control and the survivor count (dose: 64.0 mg/kg/injection, schedule: Q01DX009 (ip), vehicle: water) was 10 of 10. The survivor count (dose: 128.0 mg/kg/injection, schedule: Q01DX009 (ip), vehicle: water) was 9 of 10 and the T/C (dose: 400.0 mg/kg/injection, schedule: Q04DX003 (ip), vehicle: saline) was 128 % of control.
`CCOC(=O)C1CCC(NC(=O)N(CCCl)N=O)CC1` (configuration not stated) was tested, and the survivor count (dose: 59.0 mg/kg/injection, schedule: Q01DX001 (ip), vehicle: gum acacia) was 6 of 10.
`O=NN(CCF)C(=O)NC1C(O)CCCC1O` (configuration not stated) was tested, and the survivor count (dose: 24.0 mg/kg/injection, schedule: Q01DX007 (ip), vehicle: water) was 2 of 10 on day 55.
With `O=C1OC(C(O)CO)C(O)=C1O` (configuration not stated) the survivor count (dose: 1600.0 mg/kg/injection, schedule: Q01DX009 (ip), vehicle: saline) was 4 of 10.
`O=c1[nH]cc(N(CCCl)CCCl)c(=O)[nH]1` was tested, and the survivor count (dose: 1.0 mg/kg/injection, schedule: Q01DX009 (ip), vehicle: saline with Tween-80) was 10 of 10, the survivor count (dose: 2.0 mg/kg/injection, schedule: Q01DX009 (ip), vehicle: saline with Tween-80) was 9 of 10 and the survivor count (dose: 4.0 mg/kg/injection, schedule: Q01DX009 (ip), vehicle: saline with Tween-80) was 5 of 10.
With `Cc1cc2oc(=O)c3c(c2c(O)c1CN1CCN(C)CC1)CCCC3` the T/C [1] was 128 % of control and the survivor count (dose: 256.0 mg/kg/injection, schedule: Q01DX009 (ip), vehicle: Klucel (hydroxypropylcellulose) (HPC)) was 3 of 5.
`O=c1[nH]cc(F)c(=O)[nH]1` was tested, and the T/C [2] was 137 % of control, the survivor count [2] was 6 of 6 and the T/C (dose: 10.0 mg/kg/injection, schedule: Q01DX009 (ip), vehicle: saline, evaluated on day 5) was 90 % of control. The T/C (dose: 10.0 mg/kg/injection, schedule: Q01DX009 (ip), vehicle: saline, evaluated on day 60) was 96, 98, 147 % of control [5 of 6 alive], the survivor count (dose: 10.0 mg/kg/injection, schedule: Q01DX009 (ip), vehicle: saline) was 5 of 6 and the survivor count (dose: 20.0 mg/kg/injection, schedule: Q01DX009 (ip), vehicle: saline with Tween-80) was 6 of 6. The T/C (dose: 20.0 mg/kg/injection, schedule: Q01DX009 (ip), vehicle: saline, evaluated on day 5) was 93 % of control, the T/C (dose: 20.0 mg/kg/injection, schedule: Q01DX009 (ip), vehicle: saline, evaluated on day 60) was 96, 107, 108, 141 % of control and the survivor count (dose: 25.0 mg/kg/injection, schedule: Q04DX003 (ip), vehicle: saline) was 6 of 6. The survivor count (dose: 37.0 mg/kg/injection, schedule: Q01DX009 (ip), vehicle: saline) was 10 of 10, the survivor count (dose: 40.0 mg/kg/injection, schedule: Q01DX009 (ip), vehicle: Klucel (hydroxypropylcellulose) (HPC)) was 6 of 6 and the T/C [3] was 86 and 87 % of control. For the same compound, the survivor count [3] was 6 of 6, the survivor count (dose: 65.0 mg/kg/injection, schedule: Q01DX009 (ip), vehicle: saline) was 10 of 10 and the survivor count (dose: 180.0 mg/kg/injection, schedule: Q04DX003 (ip), vehicle: saline) was 10 of 10.
